Article doi:10.1101/2020.06.09.20127068
No constants are given. Whether binding was seen depends on the method and setting. Binding seen in cells or lysates may run through a third protein. Some results given as binding are weak or reduced against the parent protein; the word gives no strength.

Chains of the proteins cited; added tags and fusions are not shown.
UniProt P30279: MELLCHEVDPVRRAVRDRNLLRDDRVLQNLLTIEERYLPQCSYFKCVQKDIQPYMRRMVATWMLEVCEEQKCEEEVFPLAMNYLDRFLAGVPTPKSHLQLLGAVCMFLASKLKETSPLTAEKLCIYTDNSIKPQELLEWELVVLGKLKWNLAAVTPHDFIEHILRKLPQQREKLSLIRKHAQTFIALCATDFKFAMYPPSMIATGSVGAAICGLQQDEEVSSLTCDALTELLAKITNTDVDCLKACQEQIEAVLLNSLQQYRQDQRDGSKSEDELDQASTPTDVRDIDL
UniProt Q13568: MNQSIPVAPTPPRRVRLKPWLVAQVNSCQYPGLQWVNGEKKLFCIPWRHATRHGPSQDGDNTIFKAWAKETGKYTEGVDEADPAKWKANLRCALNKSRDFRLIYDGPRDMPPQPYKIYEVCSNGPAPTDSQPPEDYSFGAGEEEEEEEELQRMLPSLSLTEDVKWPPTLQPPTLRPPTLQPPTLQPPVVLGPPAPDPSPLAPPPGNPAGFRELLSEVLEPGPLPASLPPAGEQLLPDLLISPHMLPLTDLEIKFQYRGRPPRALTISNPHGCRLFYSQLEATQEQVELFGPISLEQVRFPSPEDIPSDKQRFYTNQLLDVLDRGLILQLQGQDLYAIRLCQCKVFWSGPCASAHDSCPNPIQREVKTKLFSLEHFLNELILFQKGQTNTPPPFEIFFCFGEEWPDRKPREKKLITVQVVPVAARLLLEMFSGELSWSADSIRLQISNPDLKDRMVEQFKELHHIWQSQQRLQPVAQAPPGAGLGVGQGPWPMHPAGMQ

Molecular target: T1, FBXL8 (human (endogenous in MCF7 and MDA-MB231)) (UniProt Q96CD0)
T1 sequence: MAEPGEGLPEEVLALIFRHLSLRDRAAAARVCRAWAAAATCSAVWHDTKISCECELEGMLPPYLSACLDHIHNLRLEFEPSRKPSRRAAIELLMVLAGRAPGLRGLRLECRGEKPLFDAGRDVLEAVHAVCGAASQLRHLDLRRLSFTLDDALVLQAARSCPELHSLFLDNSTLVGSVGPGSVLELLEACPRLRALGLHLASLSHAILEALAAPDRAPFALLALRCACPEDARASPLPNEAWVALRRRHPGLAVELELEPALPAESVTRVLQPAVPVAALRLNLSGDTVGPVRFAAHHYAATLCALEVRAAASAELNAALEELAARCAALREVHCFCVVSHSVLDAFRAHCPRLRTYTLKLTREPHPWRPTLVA
Test: co-IP

In the case of “CCND2 (Cyclin D2) (from UniProt P30279 1-289)”, the binding is reported as “binds”.

For “IRF5 (Interferon Regulatory Factor 5) (from UniProt Q13568 1-498)”, the binding was “binds”.
